Results are given in words; binding and its absence hold for the method and conditions named. Binding seen in cells or lysates may run through a third protein. Here binding means that the protein was enriched with, or labelled near, the bait; the list need not be complete.
Experiments:
Test in all cases: affinity purification with mass spectrometry
Conditions in all cases: remark: other sources report otherwise
[1] = molecular target: T1, TAP-Upf1-FL (S. cerevisiae), P30771
T1 chain: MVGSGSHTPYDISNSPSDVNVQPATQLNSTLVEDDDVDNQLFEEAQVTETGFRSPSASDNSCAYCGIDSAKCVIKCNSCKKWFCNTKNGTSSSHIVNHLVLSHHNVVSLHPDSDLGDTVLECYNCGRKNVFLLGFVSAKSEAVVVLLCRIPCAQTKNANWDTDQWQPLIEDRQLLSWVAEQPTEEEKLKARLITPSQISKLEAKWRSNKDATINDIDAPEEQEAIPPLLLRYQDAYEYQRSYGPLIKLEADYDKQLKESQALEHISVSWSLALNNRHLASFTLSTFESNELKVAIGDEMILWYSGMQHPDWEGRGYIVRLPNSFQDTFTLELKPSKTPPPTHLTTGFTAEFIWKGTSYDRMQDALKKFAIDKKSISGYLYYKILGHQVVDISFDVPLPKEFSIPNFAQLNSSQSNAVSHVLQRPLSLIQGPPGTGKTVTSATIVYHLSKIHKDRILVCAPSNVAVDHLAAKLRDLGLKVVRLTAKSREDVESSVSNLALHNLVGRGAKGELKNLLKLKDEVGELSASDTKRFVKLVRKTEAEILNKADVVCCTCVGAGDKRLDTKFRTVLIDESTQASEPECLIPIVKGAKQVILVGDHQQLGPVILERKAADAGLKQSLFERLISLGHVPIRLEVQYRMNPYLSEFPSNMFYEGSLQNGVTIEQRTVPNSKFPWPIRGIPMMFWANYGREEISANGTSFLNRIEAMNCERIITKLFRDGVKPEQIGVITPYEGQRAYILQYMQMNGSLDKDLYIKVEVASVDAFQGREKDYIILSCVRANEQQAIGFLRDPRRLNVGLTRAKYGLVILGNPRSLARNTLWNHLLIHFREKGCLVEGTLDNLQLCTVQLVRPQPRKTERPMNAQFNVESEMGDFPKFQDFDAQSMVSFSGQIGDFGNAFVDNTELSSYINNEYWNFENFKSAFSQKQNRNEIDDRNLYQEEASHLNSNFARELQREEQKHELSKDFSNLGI

[2] = molecular target: T1, TAP-Upf1-FL (S. cerevisiae), P30771
[3] = molecular target: T2, Upf1-TAP (S. cerevisiae), P30771
T2 chain: T1 chain

[4] = molecular target: T2, Upf1-TAP (S. cerevisiae), P30771

binding [1]: binds
binding [2]: binds
binding [3]: binds
binding [4]: binds
B1: Dcp2, P53550 1-970 (enzyme)
chain: MSLPLRHALENVTSVDRILEDLLVRFIINCPNEDLSSVERELFHFEEASWFYTDFIKLMNPTLPSLKIKSFAQLIIKLCPLVWKWDIRVDEALQQFSKYKKSIPVRGAAIFNENLSKILLVQGTESDSWSFPRGKISKDENDIDCCIREVKEEIGFDLTDYIDDNQFIERNIQGKNYKIFLISGVSEVFNFKPQVRNEIDKIEWFDFKKISKTMYKSNIKYYLINSMMRPLSMWLRHQRQIKNEDQLKSYAEEQLKLLLGITKEEQIDPGRELLNMLHTAVQANSNNNAVSNGQVPSSQELQHLKEQSGEHNQQKDQQSSFSSQQQPSIFPSLSEPFANNKNVIPPTMPMANVFMSNPQLFATMNGQPFAPFPFMLPLTNNSNSANPIPTPVPPNFNAPPNPMAFGVPNMHNLSGPAVSQPFSLPPAPLPRDSGYSSSSPGQLLDILNSKKPDSNVQSSKKPKLKILQRGTDLNSIKQNNNDETAHSNSQALLDLLKKPTSSQKIHASKPDTSFLPNDSVSGIQDAEYEDFESSSDEEVETARDERNSLNVDIGVNVMPSEKDSRRSQKEKPRNDASKTNLNASAESNSVEWGPGKSSPSTQSKQNSSVGMQNKYRQEIHIGDSDAYEVFESSSDEEDGKKLEELEQTQDNSKLISQDILKENNFQDGEVPHRDMPTESNKSINETVGLSSTTNTVKKVPKVKILKRGETFASLANDKKAFDSSSNVSSSKDLLQMLRNPISSTVSSNQQSPKSQHLSGDEEIMMMLKRNSVSKPQNSEENASTSSINDANASELLGMLKQKEKDITAPKQPYNVDSYSQKNSAKGLLNILKKNDSTGYPRTEGGPSSEMSTSMKRNDATNNQELDKNSTELLNYLKPKPLNDGYENISNKDSSHELLNILHGNKNSSAFNNNVYATDGYSLASDNNENSSNKLLNMLQNRSSAINEPNFDVRSNGTSGSNELLSILHRK

Source: paper doi:10.1101/266833
